# Primary screen of a compound library

Sequences of proteins named here, by UniProt entry; tags and fusion partners are left off.
UniProt E9BF75, entry or part of it: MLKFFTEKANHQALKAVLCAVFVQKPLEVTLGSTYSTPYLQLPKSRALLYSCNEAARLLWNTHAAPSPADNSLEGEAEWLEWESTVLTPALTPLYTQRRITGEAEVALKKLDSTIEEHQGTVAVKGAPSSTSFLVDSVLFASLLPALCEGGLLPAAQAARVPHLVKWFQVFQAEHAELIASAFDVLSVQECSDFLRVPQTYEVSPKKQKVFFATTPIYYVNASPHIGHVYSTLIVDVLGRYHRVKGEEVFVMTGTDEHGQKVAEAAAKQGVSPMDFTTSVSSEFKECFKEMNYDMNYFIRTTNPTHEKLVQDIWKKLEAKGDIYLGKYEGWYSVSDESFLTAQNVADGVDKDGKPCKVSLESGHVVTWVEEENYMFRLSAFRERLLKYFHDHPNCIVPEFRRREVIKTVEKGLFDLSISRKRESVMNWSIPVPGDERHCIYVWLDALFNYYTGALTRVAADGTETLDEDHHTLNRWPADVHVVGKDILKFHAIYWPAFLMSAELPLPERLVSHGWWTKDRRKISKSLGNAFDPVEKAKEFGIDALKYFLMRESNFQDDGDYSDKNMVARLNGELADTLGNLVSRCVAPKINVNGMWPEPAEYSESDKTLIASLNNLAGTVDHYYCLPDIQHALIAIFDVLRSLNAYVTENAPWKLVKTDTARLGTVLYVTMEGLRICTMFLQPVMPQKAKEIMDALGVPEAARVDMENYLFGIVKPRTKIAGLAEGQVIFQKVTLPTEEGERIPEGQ

Data taken from ChEMBL document CHEMBL3988442, “University of Dundee, Small-Polar-MMV Screening Library” (2021).

Results are percentages, as filed.
The controls that fix the scale are not given in the record; negative values are as filed.
This is an unselected part of the compounds tested.

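Primary screen of methionyl-tRNA synthetase; the read-out is not stated. Target: Methionyl-tRNA synthetase (putative), Leishmania donovani (UniProt E9BF75). The test concentration is not given. Values are per cent inhibition. Size under these conditions: about 68,000 compounds, about 24 of them at 50% or above in at least one test.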

compound	Inhibition
CS(=O)(=O)NCCNCc1ccc(Br)s1	8.964
CC(C)C(=O)N1CC2(CCN(CC(C)(C)C)CC2)C1	1.111
CCOC(=O)[C@@H]1[C@@H](O)C(=O)N(C)C12CCN(C(=O)c1ccco1)CC2	11.62
COc1ccc(C[C@H]2CN(C(=O)c3ccc(C)nc3)CC[C@@H]2OC)cc1	14.57
CCN(CC)S(=O)(=O)CC(=O)N1CCc2ccc(C)cc21	15.69
Cc1cc(C)n(CC2CCCCN2CC(=O)N(C)Cc2ccco2)n1 (stereo not shown)	5.155
CC(C)(C)c1noc(CCCC(=O)N2CCCC(c3ccn[nH]3)C2)n1 (stereo not shown)	3.548
Cc1ncsc1CCC(=O)NC1CCN(c2ccc(Cl)nn2)CC1	12.06
CC(Cc1ccco1)NC(=O)Nc1ccc(N(C)C)nc1 (stereo not shown)	24.21
CN(C)C1(CNC(=O)c2c(O)cc(Cl)cc2Cl)CCOCC1	19.63
CN(C)C(=O)N1CCN(C(=O)CCc2ccccc2)[C@H]2CS(=O)(=O)C[C@H]21	5.435
Cc1cc(NC2CCN(Cc3ccccn3)CC2)n2nc(C)c(C)c2n1	4.467
CN(Cc1ccc(F)cc1F)Cc1cc2c(cc1Br)OCCO2	3.672
CCN1CCN(C2CCN(Cc3ccc(Cl)s3)CC2)C1=O	12.4
Cc1cnc(N2CCN(C)c3ncccc3C2)nc1	11.96
COc1ccccc1CC(=O)NCc1c(C)nc2cc(=O)[nH]n2c1C	14.29
COCC(=O)NC1CC2(CCN(CCO)CC2)c2ccccc21 (stereo not shown)	8.269
CNC(=O)CN1CCC12CCN(C(=O)Cc1ccccc1)C2 (stereo not shown)	6
Cn1cc(N2CCC3(CCN(C(=O)[C@H]4CCCO4)C3)C2=O)cn1 (stereo partly shown)	-1.875
Cn1c(-c2ccccc2Cl)nc2cc(C(=O)NC(CO)CO)cnc21	9.253
c1cnc(N2C[C@@H]3COC[C@]3(COCC3CCCC3)C2)nc1	17.26
O=C(C1CC1)N1CCC2(CCN(Cc3cccc(F)c3)CC2)CC1	13.36
CC(c1ccccc1F)N(CC(N)=O)C1CC1 (stereo not shown)	9.582
CC(=O)N(C)Cc1cccc(NC(=O)N(C)Cc2nccs2)c1	14.01
O=C1N(c2ccc(Cl)cc2)Cc2nc(=O)[nH]n21	11.17
CC(C)(C)c1ncc(CNc2ccccc2SCCC(N)=O)s1	10.78
COc1nc(N2CCC(CC(N)=O)CC2)ncc1Br	13.17
CCc1ccc(NC(=O)CC2Cn3ncnc3NC2=O)cc1 (stereo not shown)	10.29
Cc1nc(-n2nc(-c3cccs3)cc2N)[nH]c(=O)c1C	5.932
CC(=O)N1CCC2(CCN(Cc3cccc(F)c3)CC2)CC1	14.01
CCCn1nc2c(cc1=O)CN(CCN1CCCC1=O)CC2	13.19
NC(=O)c1cncc(N2CCN(Cc3cccc4nsnc34)CC2)n1	7.018
COc1ccnc(N2CCN(C(=O)c3cccc(C#N)c3)CC2)n1	13.14
CN(C)c1ccc(C(=O)N2Cc3cnc(C(C)(C)C)nc3C2)cc1	19.86
c1cnnc(NCC2CN(CCn3cccn3)CCO2)c1 (stereo not shown)	10.18
CN(CCCNC(=O)c1ccc(C#N)cc1)CC(F)(F)F	7.023
CN(C(=O)C1CCOCC1)[C@@H]1CCC[C@@H](N2CCOCC2)[C@@H]1O	5.882
Cn1nnc2c1C(COCC1CC1)CN(C(=O)[C@H]1CCCO1)C2 (stereo partly shown)	11.59
CCC(C)[C@H](N)c1nnc(SCC(=O)Nc2ccc(Br)cc2)o1 (stereo partly shown)	5.248
O=S(=O)(Cc1c(F)cccc1Cl)Cc1nnnn1C1CC1	17.07
COCCC(=O)N1CCC2(CCCN2Cc2cccc(Cl)c2)C1 (stereo not shown)	8.383
FC(F)(F)c1ccnc(N2CCCCCC2)c1	5.108
c1cnc(-c2nn3c(CN4CCCCCC4)nnc3s2)cn1	3.266
Cc1nc(CN2C[C@@H](NS(=O)(=O)N(C)C)[C@H](C(C)C)C2)cs1	16.31
CC(C)NC(=O)N1CCC2(CC(=O)N(c3ccsc3)C2)C1 (stereo not shown)	16.35
O=C(c1cc(F)cc(Cl)c1)N1C[C@@H]2CC[C@H](C1)N(Cc1ccccc1)C2	4.908
Fc1ccc(CN2CCCn3nnc(COCC4CC4)c3C2)cc1	8.791
COCCC(=O)N1CCN(CC2CC2)c2nc(C)ccc2C1	-0.7519
CCc1nn(-c2cc(Oc3cccc(C)c3)nc(C)n2)c(N)c1C#N	21.58
CN1C(=O)CC(c2cnn(C)c2)C12CCN(C(=O)c1ccncc1)CC2 (stereo not shown)	9.333
OC(CNc1ccc(Cl)cn1)CN1CCOCC1 (stereo not shown)	9.375
O=C(c1cocn1)N1CCC[C@]2(C[C@@H](OCC3CC3)CO2)C1	16.92
Cc1nc(O)cc(CN2C[C@H](NC(=O)C3CCC3)[C@@H](C3CC3)C2)n1	14.2
O=C1NCCN2CCN(C(=O)Nc3ccc(-c4ccccc4)cc3)CC12 (stereo not shown)	3.377
Cc1cnn(C2CCCN(C(=O)CCCOc3ccccc3F)C2)c1 (stereo not shown)	21.31
CCC(C)N(Cc1c[nH]c(C)n1)Cc1ccccc1Cl (stereo not shown)	7.532
O=C(O)c1cnc(N2CCCC2)nc1COc1ccc(F)cc1	14.42
CN(C)Cc1ccc(C2CCCCN2C(=O)c2cccnn2)cc1 (stereo not shown)	11.54
Cc1cc(CN2CCN(C(=O)NC(C)c3cccnc3)CC2)on1 (stereo not shown)	10.2
CC1c2ncc(Cn3cccn3)n2CCN1Cc1ccc(F)cc1 (stereo not shown)	15.25
COc1ccc(CC2(CO)CCN(c3cc(C#N)ccn3)CC2)cc1	11.38
Cc1ccn(C)c(=O)c1NC(=O)N(C)Cc1cccc(OC(C)C)c1	5.167
CC(C)c1nc(C2CCCN2CC(=O)Nc2ccc(Cl)cn2)no1 (stereo not shown)	11.89
CCN1CCN(C(=O)CCC2CCN(C(C)CSC)CC2)CC1 (stereo not shown)	7.453
O=C(O)[C@H]1OCC(=O)N(Cc2cccc(F)c2)[C@@H]1c1ccc(Cl)cc1	14.92
Cc1nccc(C(=O)N2CCCN(Cc3nccn3C(C)C)CC2)n1	12.22
Cc1nn(C)c(N(C)C)c1CNC(C)Cc1c(F)cccc1F (stereo not shown)	14.29
Nc1ccc(CC2CCCN(Cc3c[nH]cn3)C2)nn1 (stereo not shown)	17.32
Cn1ccc(C(=O)N2CCCC(n3cncn3)C2)cc1=O (stereo not shown)	12.5
O=C(c1cccc(Cl)c1)C1CCCN(c2nnc(C3CCC3)o2)C1 (stereo not shown)	9.524
Cc1ccc(NC(=O)c2n[nH]c(-n3cnnc3)n2)cc1C	10.37
COCC(=O)Nc1cnn(COc2ccc(F)cc2Cl)c1	-10.67
Cc1nc(C)c(CC(=O)Nc2nnc(C(C)C)s2)c(=O)[nH]1	14.21
CCOc1cc(C(=O)NS(=O)(=O)c2cccc(C#N)c2)ccc1OC	7.542
CS(=O)(=O)NCC1CCCN(C(=O)Nc2cccnc2N2CCCC2)C1 (stereo not shown)	7.042
CN(Cc1ncnn1C)C(=O)CCCn1ccc2cc(Cl)ccc21	21.37
COCCN1CCN(c2ccc3ccc(C(=O)NC4CC4)cn23)CC1	5.602
COCCN1CCN(CC(C)(O)c2cccc(C(F)(F)F)c2)CC1 (stereo not shown)	14.77
O=C(C1CC1)N1CCc2c(ncnc2N2CCN3CCCC3C2)C1 (stereo not shown)	9.422
Cc1nc2c(cc1C(=O)Nc1ccccc1Cl)c(=O)n(C)c(=O)n2C	6.138

Some entries from above, unchanged:

For CN(C(=O)C1CCOCC1)[C@@H]1CCC[C@@H](N2CCOCC2)[C@@H]1O the result was 5.882%.
For Cn1cc(N2CCC3(CCN(C(=O)[C@H]4CCCO4)C3)C2=O)cn1 (stereo partly shown) the result was -1.875%.
For CCC(C)[C@H](N)c1nnc(SCC(=O)Nc2ccc(Br)cc2)o1 (stereo partly shown) the result was 5.248%.
For CCOc1cc(C(=O)NS(=O)(=O)c2cccc(C#N)c2)ccc1OC the result was 7.542%.
For COc1ccnc(N2CCN(C(=O)c3cccc(C#N)c3)CC2)n1 the result was 13.14%.
For CS(=O)(=O)NCCNCc1ccc(Br)s1 the result was 8.964%.
For Cn1ccc(C(=O)N2CCCC(n3cncn3)C2)cc1=O (stereo not shown) the result was 12.5%.
For COCC(=O)Nc1cnn(COc2ccc(F)cc2Cl)c1 the result was -10.67%.
For COc1ccc(C[C@H]2CN(C(=O)c3ccc(C)nc3)CC[C@@H]2OC)cc1 the result was 14.57%.